Laboratory results taken from the supplement of paper PMC10849652.
The list shows a part of the results.

Protein sequences, listed by entry. Tags and fused reporters are not part of them. Lines headed by an entry give the natural chain unless they say otherwise; changes in a name come on top.
UniProt Q86WA8: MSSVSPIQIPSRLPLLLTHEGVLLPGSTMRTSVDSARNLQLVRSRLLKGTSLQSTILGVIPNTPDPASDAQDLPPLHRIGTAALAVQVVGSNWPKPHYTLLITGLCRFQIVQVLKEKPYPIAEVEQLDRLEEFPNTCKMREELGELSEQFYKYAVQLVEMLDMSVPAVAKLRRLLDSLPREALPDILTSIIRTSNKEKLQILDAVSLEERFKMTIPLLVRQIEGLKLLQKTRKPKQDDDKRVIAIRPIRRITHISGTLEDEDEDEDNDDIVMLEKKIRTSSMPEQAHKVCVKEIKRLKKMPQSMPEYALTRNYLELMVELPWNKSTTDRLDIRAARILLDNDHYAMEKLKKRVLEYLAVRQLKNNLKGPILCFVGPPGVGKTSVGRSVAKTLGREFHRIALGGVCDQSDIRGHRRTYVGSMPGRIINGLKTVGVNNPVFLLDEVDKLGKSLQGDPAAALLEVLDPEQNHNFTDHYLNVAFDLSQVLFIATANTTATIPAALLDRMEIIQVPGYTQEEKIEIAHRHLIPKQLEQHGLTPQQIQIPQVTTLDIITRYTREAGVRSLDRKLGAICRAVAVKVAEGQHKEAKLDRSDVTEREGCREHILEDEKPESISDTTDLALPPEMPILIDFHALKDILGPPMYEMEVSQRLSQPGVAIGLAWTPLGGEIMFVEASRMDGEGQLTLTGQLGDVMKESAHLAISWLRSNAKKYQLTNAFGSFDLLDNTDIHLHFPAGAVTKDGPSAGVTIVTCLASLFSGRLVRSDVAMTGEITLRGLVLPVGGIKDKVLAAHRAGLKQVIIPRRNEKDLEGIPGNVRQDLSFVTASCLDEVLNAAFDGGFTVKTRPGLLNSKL
UniProt Q8N3X6: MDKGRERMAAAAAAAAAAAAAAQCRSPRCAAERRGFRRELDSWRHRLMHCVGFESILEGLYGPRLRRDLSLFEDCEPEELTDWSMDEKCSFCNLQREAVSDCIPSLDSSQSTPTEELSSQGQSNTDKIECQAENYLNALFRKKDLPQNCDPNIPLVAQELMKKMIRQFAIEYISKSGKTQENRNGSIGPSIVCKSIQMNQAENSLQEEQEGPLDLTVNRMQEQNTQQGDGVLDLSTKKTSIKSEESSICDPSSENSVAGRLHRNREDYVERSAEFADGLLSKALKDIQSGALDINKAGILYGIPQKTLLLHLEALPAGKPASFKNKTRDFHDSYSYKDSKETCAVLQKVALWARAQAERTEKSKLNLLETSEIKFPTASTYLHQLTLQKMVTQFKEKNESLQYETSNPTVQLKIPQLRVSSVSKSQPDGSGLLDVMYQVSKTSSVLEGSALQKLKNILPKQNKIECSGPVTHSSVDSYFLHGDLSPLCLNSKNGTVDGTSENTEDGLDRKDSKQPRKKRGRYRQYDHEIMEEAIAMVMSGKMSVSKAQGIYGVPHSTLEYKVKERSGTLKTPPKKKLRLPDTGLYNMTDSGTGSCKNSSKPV
UniProt Q969L4: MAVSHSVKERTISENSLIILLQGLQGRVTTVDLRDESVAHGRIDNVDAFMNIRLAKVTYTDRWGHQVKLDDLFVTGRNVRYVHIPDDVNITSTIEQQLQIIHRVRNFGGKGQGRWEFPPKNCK
UniProt Q99732: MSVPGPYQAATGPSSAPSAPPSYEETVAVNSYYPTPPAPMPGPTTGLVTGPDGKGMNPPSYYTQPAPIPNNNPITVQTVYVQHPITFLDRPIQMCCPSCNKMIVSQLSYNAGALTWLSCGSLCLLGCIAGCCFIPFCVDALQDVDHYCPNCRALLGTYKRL
UniProt O15243: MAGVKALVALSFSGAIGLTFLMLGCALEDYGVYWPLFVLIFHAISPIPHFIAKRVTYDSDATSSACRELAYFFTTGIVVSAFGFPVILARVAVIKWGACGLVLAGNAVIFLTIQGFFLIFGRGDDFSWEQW
UniProt Q9Y2L9: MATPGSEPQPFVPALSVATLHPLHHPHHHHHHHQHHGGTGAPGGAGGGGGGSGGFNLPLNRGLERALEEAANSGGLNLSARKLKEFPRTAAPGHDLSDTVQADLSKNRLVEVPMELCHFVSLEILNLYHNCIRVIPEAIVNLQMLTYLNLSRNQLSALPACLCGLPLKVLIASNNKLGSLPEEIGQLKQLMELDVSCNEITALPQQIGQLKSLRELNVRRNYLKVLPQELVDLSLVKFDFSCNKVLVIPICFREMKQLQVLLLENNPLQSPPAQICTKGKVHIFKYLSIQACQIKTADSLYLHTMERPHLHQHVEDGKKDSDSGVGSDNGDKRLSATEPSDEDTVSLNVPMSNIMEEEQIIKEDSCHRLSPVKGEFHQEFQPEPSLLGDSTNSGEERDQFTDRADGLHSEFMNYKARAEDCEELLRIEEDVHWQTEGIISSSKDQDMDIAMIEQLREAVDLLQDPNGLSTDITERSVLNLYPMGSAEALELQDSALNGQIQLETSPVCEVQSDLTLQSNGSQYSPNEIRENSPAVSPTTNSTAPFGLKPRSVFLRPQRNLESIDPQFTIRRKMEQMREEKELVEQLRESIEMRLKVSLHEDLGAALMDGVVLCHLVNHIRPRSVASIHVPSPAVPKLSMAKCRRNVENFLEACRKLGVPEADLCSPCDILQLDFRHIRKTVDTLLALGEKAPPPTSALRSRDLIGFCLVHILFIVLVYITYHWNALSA
UniProt Q52LA3: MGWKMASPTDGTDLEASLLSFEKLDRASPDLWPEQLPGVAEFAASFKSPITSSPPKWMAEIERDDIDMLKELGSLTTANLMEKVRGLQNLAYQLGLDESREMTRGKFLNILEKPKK
UniProt Q8WVP7: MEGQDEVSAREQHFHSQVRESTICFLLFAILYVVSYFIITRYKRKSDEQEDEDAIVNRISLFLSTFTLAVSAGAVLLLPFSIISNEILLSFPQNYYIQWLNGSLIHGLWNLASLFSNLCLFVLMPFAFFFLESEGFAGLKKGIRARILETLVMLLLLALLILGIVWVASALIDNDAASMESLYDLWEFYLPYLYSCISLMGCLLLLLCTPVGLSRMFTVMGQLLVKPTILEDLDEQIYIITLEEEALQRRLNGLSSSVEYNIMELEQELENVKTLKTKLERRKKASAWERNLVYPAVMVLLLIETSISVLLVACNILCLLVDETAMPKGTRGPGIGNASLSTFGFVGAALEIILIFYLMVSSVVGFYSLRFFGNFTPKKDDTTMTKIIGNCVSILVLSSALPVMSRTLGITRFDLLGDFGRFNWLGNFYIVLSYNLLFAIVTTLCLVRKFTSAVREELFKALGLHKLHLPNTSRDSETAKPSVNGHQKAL
UniProt Q7Z4F1: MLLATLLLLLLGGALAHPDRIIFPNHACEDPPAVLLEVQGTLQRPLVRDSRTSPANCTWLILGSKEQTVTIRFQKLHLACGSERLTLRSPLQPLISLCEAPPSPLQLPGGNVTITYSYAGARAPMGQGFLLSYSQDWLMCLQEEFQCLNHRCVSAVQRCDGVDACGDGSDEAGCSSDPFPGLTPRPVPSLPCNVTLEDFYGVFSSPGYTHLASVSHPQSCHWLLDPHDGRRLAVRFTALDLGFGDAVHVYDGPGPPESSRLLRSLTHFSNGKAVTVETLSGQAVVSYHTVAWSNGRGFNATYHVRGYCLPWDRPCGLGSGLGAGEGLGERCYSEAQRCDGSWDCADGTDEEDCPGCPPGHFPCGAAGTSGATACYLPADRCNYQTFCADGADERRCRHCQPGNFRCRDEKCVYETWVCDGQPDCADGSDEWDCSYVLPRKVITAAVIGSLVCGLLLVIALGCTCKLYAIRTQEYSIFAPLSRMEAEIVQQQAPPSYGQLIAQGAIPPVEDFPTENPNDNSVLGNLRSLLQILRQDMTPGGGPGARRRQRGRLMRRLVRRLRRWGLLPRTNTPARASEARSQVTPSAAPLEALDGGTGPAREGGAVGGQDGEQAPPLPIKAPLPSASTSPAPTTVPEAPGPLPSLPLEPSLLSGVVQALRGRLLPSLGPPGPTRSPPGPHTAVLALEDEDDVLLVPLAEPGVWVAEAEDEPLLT
UniProt Q6ZUX7: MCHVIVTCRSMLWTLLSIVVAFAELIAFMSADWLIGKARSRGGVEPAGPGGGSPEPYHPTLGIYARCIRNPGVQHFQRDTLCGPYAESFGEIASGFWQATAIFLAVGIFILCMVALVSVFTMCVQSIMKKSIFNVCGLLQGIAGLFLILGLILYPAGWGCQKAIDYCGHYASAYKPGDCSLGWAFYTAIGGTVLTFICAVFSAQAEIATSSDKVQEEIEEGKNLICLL
UniProt Q9H9Z2: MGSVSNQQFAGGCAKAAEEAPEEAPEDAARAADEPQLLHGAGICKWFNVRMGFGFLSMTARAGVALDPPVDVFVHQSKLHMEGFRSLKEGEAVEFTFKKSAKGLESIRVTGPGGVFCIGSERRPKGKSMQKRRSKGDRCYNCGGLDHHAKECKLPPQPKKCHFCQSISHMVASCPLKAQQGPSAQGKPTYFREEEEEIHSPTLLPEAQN
UniProt O75581: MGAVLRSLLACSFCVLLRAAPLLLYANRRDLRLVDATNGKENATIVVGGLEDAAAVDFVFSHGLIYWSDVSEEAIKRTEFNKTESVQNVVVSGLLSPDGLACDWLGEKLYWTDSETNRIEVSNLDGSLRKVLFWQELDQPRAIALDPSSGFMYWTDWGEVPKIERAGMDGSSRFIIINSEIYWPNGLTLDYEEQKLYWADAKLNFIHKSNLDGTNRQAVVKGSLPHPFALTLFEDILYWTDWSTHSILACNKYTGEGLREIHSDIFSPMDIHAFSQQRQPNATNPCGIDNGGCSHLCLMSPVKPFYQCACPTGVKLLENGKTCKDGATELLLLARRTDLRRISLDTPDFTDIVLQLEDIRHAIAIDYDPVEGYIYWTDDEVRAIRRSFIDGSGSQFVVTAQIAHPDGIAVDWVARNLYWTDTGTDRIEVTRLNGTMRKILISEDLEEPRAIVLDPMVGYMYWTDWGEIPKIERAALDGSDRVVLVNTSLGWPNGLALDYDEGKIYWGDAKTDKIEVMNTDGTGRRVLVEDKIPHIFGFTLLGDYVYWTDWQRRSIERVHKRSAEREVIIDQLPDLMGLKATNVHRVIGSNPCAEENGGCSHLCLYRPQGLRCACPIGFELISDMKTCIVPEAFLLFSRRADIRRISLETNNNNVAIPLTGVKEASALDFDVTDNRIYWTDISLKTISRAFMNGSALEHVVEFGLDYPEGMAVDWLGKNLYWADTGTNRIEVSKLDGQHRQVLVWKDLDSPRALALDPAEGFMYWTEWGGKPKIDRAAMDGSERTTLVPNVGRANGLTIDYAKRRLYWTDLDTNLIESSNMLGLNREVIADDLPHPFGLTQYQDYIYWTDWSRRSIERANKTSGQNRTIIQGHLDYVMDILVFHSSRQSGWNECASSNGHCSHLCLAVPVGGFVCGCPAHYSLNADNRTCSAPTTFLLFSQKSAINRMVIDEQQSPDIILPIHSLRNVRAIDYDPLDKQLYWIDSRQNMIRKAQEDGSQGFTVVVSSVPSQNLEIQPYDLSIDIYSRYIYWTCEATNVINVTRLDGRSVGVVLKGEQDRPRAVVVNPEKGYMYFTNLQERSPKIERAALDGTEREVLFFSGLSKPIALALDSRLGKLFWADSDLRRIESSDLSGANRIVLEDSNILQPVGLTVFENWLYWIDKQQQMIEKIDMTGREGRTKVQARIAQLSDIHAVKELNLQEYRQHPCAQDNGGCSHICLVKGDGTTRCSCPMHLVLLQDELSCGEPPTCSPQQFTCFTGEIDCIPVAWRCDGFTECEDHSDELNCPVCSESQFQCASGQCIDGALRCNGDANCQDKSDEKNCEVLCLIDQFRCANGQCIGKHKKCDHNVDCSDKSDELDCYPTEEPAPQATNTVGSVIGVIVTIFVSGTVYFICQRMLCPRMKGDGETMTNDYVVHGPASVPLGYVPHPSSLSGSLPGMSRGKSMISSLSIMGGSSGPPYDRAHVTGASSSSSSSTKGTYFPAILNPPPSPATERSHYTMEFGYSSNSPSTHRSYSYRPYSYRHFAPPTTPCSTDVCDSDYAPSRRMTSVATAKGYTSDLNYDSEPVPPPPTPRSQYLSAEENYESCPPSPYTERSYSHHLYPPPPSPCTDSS
UniProt Q9BT23: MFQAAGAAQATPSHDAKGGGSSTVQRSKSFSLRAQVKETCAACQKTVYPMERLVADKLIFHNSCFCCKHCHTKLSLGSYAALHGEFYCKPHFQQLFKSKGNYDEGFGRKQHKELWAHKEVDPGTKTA
UniProt Q86WU2: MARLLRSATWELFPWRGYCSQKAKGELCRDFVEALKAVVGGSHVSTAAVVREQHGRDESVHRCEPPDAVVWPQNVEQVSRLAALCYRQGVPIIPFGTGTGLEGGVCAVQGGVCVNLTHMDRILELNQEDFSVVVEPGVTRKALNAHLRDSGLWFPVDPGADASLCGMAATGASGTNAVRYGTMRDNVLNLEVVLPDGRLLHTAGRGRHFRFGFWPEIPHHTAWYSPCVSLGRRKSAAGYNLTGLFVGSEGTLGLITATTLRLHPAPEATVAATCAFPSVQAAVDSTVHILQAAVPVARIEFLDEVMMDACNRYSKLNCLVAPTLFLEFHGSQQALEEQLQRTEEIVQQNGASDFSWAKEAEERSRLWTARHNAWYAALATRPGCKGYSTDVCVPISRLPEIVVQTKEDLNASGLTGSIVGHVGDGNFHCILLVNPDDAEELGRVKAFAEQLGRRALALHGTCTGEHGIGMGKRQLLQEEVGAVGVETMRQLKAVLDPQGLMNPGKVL

These targets were tested with CCCS(=O)(=O)Nc1ccc(F)c(C(=O)c2c[nH]c3ncc(-c4ccc(Cl)cc4)cc23)c1F [vemurafenib] (assay: log2 fold change, soluble protein after heating vs DMSO (PISA); higher = thermal stabilisation; K562 lysate, 10 uM; active = over 0.2 and 3.5 SD of the protein, either way, in both replicates (recomputed)).
Summary of the method: (§1)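 Soluble protein was defined as the supernatant remaining after 21,000xg for 90 min, following pooling of heated aliquots and adjustment to 0.5% NP-40 at 4°C. Before that, crude K562 extract at 1 mg/mL protein in PBS pH 7.4 with 1 mM MgCl2 was treated with 10 μM compound for 30 min and heated for 3 min across 48°C-58°C. Quantification used TMTpro 16plex LC-MS/MS with channel sums equalised, and values are log-two fold changes in thermal stability relative to solvent controls from duplicates.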

log2 fold change, inactive:
LONP2 (UniProt Q86WA8) -0.167
LRRC9 (UniProt Q6ZRR7) -0.011
LCORL (UniProt Q8N3X6) -0.128
LEF1 (UniProt Q9UJU2) 0.056
LCA5 (UniProt Q86VQ0) 0.057
LSM11 (UniProt P83369) 0.077

What follows are targets tested with CCCS(=O)(=O)Nc1ccc(F)c(C(=O)c2c[nH]c3ncc(Cl)cc23)c1F in the same assay as above.
Summary of the method: as §1

log2 fold change, inactive:
LRRC25 (UniProt Q8N386) -0.042
LIPT2 (UniProt A6NK58) 0.031
LSM14B (UniProt Q9BX40) -0.001
LDHA (UniProt F5GZQ4) 0.035
LEMD2 (UniProt Q8NC56) 0.038
LSM10 (UniProt Q969L4) -0.086
LITAF (UniProt Q99732) 0.071
LEPROT (UniProt O15243) 0.112
LEMD3 (UniProt Q9Y2U8) 0.065
LDHA isoform 4 (UniProt P00338) 0.109
LRCH1 isoform 3 (UniProt Q9Y2L9) 0.054
LCOR isoform 3 (UniProt Q96JN0) 0.075
LEG1 (UniProt Q6P5S2) -0.049
LIN52 (UniProt Q52LA3) 0.068

What follows are targets tested with CCN(CCCOc1ccc2c(Nc3cc(CC(=O)Nc4cccc(F)c4)[nH]n3)ncnc2c1)CCOP(=O)(O)O [barasertib] in the same assay as above.
Summary of the method: as §1

log2 fold change, inactive:
LMBR1 isoform 3 (UniProt Q8WVP7) 0.038
LIPT2 (UniProt A6NK58) 0.129
LSM14B (UniProt Q9BX40) -0.12
LDHA (UniProt F5GZQ4) 0.293
LRP10 (UniProt Q7Z4F1) 0.233
LSM10 (UniProt Q969L4) 0.018
LEPROT (UniProt O15243) 0.042
LHFPL2 (UniProt Q6ZUX7) -0.073
LEMD3 (UniProt Q9Y2U8) -0.125
LIN28A (UniProt Q9H9Z2) 0.026
LRCH1 isoform 3 (UniProt Q9Y2L9) 0.098
LRP6 (UniProt O75581) -0.066
LIMD2 (UniProt Q9BT23) 0.151
LRG1 (UniProt P02750) 0.128
LEG1 (UniProt Q6P5S2) 0
LDHD (UniProt Q86WU2) 0.022
LOR (UniProt P23490) 0.006
